Among the data in patent US20200262922A1 are binding values, retold here.

The chains behind the UniProt entries cited, without tags or fusion partners. Residues count along the entry.
UniProt P16410, residues 36-161: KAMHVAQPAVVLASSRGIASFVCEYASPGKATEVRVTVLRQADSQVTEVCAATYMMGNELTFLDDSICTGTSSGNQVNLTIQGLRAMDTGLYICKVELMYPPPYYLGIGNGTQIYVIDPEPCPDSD

No constants are given. Whether binding was seen depends on the method and setting. Some binding calls cover weakened binding; strength is not graded here.

The assay addresses CTLA4 (cytotoxic T lymphocyte associated antigen 4), antigen of the binding ELISA (UniProt P16410). Nature of the assay: binding ELISA potency of stored formulation samples.

B1: anti-CTLA4 antibody (CDRs of SEQ ID NO: 35-40 on an IgG1 backbone; VH SEQ ID NO: 88, VL SEQ ID NO: 48) (antibody, V domains shown)
VH: EVQLVESGGGLVQPGGSLRLSCAASGFTFSDNWMNWVRQAPGKGLEWLAQIRNKPYNYETYYSASVKGRFTISRDDSKNSVYLQMNSLKTEDTGVYYCTAQFAYWGQGTLVTVSS
VL: DIQMTQSPSSLSASVGDRVTITCRTSENIYGGLNWYQRKPGKSPKLLIYGATNLASGVSSRFSGSGSGTDYTLTISSLQPEDVATYYCQNVLRSPFTFGSGTKLEIK
For B1, the binding entry was “binds”.
